From paper PMC7819943, “Rice protein-binding microarrays: a tool to detect cis-acting elements near promoter regions in rice” come the findings set out here.

The list shows a part of the results.

In the test the target is T1, OsSMF1 (Oryza sativa, UniProt Q6ZLB0 1-436).
T1 sequence: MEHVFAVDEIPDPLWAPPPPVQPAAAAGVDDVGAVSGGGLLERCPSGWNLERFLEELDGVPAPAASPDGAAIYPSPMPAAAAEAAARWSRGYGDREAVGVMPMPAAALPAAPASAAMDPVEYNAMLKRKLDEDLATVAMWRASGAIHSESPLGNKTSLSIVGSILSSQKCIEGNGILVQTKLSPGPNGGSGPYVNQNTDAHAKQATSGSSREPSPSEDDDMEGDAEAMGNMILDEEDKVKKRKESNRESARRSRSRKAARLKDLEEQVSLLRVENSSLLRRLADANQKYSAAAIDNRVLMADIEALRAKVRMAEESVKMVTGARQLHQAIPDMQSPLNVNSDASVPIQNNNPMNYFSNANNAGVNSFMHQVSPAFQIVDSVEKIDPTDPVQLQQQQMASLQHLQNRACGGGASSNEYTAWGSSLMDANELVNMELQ
Kind of test: protein-binding microarray (RPBM); PBS, 2% BSA, 51.3 ng/ul salmon testes DNA, 50 uM zinc acetate, 200 nM TF, 25 C, 1 h; high values mean tight binding. The settings on record: protein: recombinant; tags: N-terminal polyhistidine and DsRed monomer fusion (pET32a); chain copies: 2; label: CyDye5-dUTP incorporated in the synthesized complementary strand; 3' TTTTT single-stranded linker to array surface; dsDNA, one strand shown. Summed up:
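Transcription factors were made in E. coli BL21-CodonPlus as N-terminal fusions to a polyhistidine tag and DsRed, then purified on Ni–NTA. After primer extension with Cy5-dUTP and blocking with 2% BSA, a custom Agilent array was exposed for 1 h at 25 °C to 200 nM protein in PBS, 2% BSA, salmon testes DNA and 50 µM zinc acetate. Washed arrays were scanned on an Axon 4000B, and the binding signal is per-feature fluorescence intensity in arbitrary units.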
For the sequence “GCATATAACTATGATAAACCACGTCAAATTAGGCCCGTTTCGGAGTCACCTAGTGCAG”, the binding signal was 4950 fluorescence intensity (a.u.).

On to “CATCAGCAGCAGCAAGCAGCTAATCGCGCACGTACGCACACGGAGTCACCTAGTGCAG”, for which the binding signal is 3970 fluorescence intensity (a.u.).

Turning to “TATAGCTCGCAGTTGGTCGCACGTCAGCAAAACTAGCGTACGGAGTCACCTAGTGCAG”, the binding signal is 15300 fluorescence intensity (a.u.).

Consider “AAGGCGCGATGTGTATATGACAAATAGGACCAGAAATTAACGGAGTCACCTAGTGCAG”, for which the binding signal is 8680 fluorescence intensity (a.u.).

For the sequence “ATTCAGTTGGTTTGGGGATTTAGATGTGGGCTCCTTCTTTCGGAGTCACCTAGTGCAG”, the binding signal was 3510 fluorescence intensity (a.u.).

For the sequence “CGCATACAGCACAAGTGGGTAAAGACTGATCAGTTTGGGACGGAGTCACCTAGTGCAG”, the binding signal is 3280 fluorescence intensity (a.u.).

Take “ACGTCCATGATGTACTCCACGCGCCGCTCTTTCTCCGTCACGGAGTCACCTAGTGCAG”: the binding signal was 3190 fluorescence intensity (a.u.).

For the sequence “TGAGCATGTGTTTGCGAAAGTTTTCCCTCTACCACGCAAGCGGAGTCACCTAGTGCAG”, the binding signal is 3280 fluorescence intensity (a.u.).

For “AAAGGGAGGAATTTGGATATTTAAAATTTGGAAAGGGAACCGGAGTCACCTAGTGCAG”, the binding signal was 13500 fluorescence intensity (a.u.).

Regarding “CTTGACATCCTCGTGCGAGAGCTCGCCCGCCGCTCCGCTCCGGAGTCACCTAGTGCAG”, the binding signal is 4280 fluorescence intensity (a.u.).

Turning to “GACGCAACTTCCCACGTCTTCTCTTCTCTCCTCCTCCGCACGGAGTCACCTAGTGCAG”, the binding signal was 12300 fluorescence intensity (a.u.).

Take “CTTAAGCATTACACACGTACGTCAAGAATGCAACCTGATCCGGAGTCACCTAGTGCAG”: the binding signal was 4580 fluorescence intensity (a.u.).

As for “GACGTCGCGGGAACCACGCACGCCGCCCTCTACTCGTCGGCGGAGTCACCTAGTGCAG”, the binding signal is 3770 fluorescence intensity (a.u.).

As to “TCTTCATACTTTGATGTCAAGCTGTAATGTTCTCAATTGGCGGAGTCACCTAGTGCAG”, the binding signal is 3410 fluorescence intensity (a.u.).

For the sequence “TGAGCGCGTCGTTCTCGATGTAGTCGTAGCACCCGACGCTCGGAGTCACCTAGTGCAG”, the binding signal was 31700 fluorescence intensity (a.u.).

“CCTTTTCCCTGCTGTGCATCTTTTGGATAGTGGTGGTGGGCGGAGTCACCTAGTGCAG”: the binding signal is 3680 fluorescence intensity (a.u.).

Take “ATGTGCCCCGCGACATATCTAGTGATAGATCATGTGTGTTCGGAGTCACCTAGTGCAG”: the binding signal is 3420 fluorescence intensity (a.u.).

In the case of “CAGCAAGTCTGCGGGATCGCGTGGTGCCACGTGGCCGGCACGGAGTCACCTAGTGCAG”, the binding signal is 36500 fluorescence intensity (a.u.).

For the sequence “TTGCCGCCGCCAGCGAGGCCGCCGGTGATGGTAGTGCTGGCGGAGTCACCTAGTGCAG”, the binding signal is 3690 fluorescence intensity (a.u.).

For the sequence “CCTTAGCTGCTGTGTCAGATTGCTTTGGTCGCTTGGTGCGCGGAGTCACCTAGTGCAG”, the binding signal is 6310 fluorescence intensity (a.u.).

For “AGCACTTGCACTTGCACACACACATGACACATCATACTTGCGGAGTCACCTAGTGCAG”, the binding signal was 9470 fluorescence intensity (a.u.).

For the sequence “GGCGGTTTTGGAAACCCTGACTATATCTCATAGAGCTTATCGGAGTCACCTAGTGCAG”, the binding signal was 3740 fluorescence intensity (a.u.).

Consider “GGGAGCTCTGTGCGTCGTCAGCTCTCCAGCCCGGGACAGTCGGAGTCACCTAGTGCAG”, for which the binding signal is 6060 fluorescence intensity (a.u.).

With “AGACATCTTTGCCGTGATACGTCAGTCCAGACAGGCAATGCGGAGTCACCTAGTGCAG”, the binding signal was 3780 fluorescence intensity (a.u.).

Turning to “TTTTGTTTGACTCCTGATCGTGTAGGCTGACAAGGACATCCGGAGTCACCTAGTGCAG”, the binding signal was 3160 fluorescence intensity (a.u.).

As to “AACGGGCGATCTGTCTTGGTCATGACGCCACCAAAGGAGCCGGAGTCACCTAGTGCAG”, the binding signal was 4250 fluorescence intensity (a.u.).

Regarding “GGAGTGTGCGGCGGCGCAAGAGAAGTCGTCTCCTCCTCCGCGGAGTCACCTAGTGCAG”, the binding signal was 3700 fluorescence intensity (a.u.).

Consider “GTCCATGCCACACACGTCGCGTCCCATGTCGTCATGCCTCCGGAGTCACCTAGTGCAG”, for which the binding signal was 5610 fluorescence intensity (a.u.).

Regarding “TTTTGGACTGCTTAATGACAGGTTGCATGCACACTAATCCCGGAGTCACCTAGTGCAG”, the binding signal is 3700 fluorescence intensity (a.u.).

With “TTATTAGCAAGATACGCATCACATGATGTGTGATCACGAGCGGAGTCACCTAGTGCAG”, the binding signal is 23000 fluorescence intensity (a.u.).

As for “TGAACAATGTTACAAATCACTTTATCGGATGAAGAAATGACGGAGTCACCTAGTGCAG”, the binding signal was 46400 fluorescence intensity (a.u.).

Regarding “TTGCTGGCTAGACTGCCACGTAGGATCAAATCCACCGCAGCGGAGTCACCTAGTGCAG”, the binding signal is 14100 fluorescence intensity (a.u.).

Turning to “GTATGCCATATGGAATCTCCATCAACCACGTGCATCAACTCGGAGTCACCTAGTGCAG”, the binding signal is 3800 fluorescence intensity (a.u.).

For the sequence “GCTGTTGTCGTCCTCGGCTGCCGAGCTGTCCTAGCTCGCCCGGAGTCACCTAGTGCAG”, the binding signal was 3390 fluorescence intensity (a.u.).

As for “TCATCTAAGGTGCTGAACTTCATGCCTATTTGAGGTATCCCGGAGTCACCTAGTGCAG”, the binding signal is 9560 fluorescence intensity (a.u.).

Turning to “ATCACAATAATATGCCACGTTATTGTACGGAGTGGATTGACGGAGTCACCTAGTGCAG”, the binding signal is 4580 fluorescence intensity (a.u.).

For the sequence “GTAAATTACGAGACGAATCTTTTGAGCATAATTACGCCATCGGAGTCACCTAGTGCAG”, the binding signal is 17600 fluorescence intensity (a.u.).

Consider “GCGGCGCATCCAGGAGGTTGAGTCGAGCACGCCACCGCTGCGGAGTCACCTAGTGCAG”, for which the binding signal was 3420 fluorescence intensity (a.u.).

As to “ATAGTCAAAGTTCAAGGTGACTATGATTGGCAAATTTCCTCGGAGTCACCTAGTGCAG”, the binding signal was 3140 fluorescence intensity (a.u.).

As to “GAACGCCGCCACCTACTCCCACTGCCACGTGGGCCCACATCGGAGTCACCTAGTGCAG”, the binding signal was 12500 fluorescence intensity (a.u.).

Consider “GCCGCTACAAACCGTGGGCAAGACGTGTCGCCATGGGAGCCGGAGTCACCTAGTGCAG”, for which the binding signal was 4560 fluorescence intensity (a.u.).

With “TAAGTTTCCACTCGACACGTCAAGTAAAACCGAGTACTATCGGAGTCACCTAGTGCAG”, the binding signal was 4740 fluorescence intensity (a.u.).
